Reference: PubChem BioAssay AID1347421 (Sanford-Burnham Center for Chemical Genomics, 2020)
In all, about 1,500 compounds were measured (“activity”: median about 2, lowest 2% from about -18 on). The list shows a part of the results. Active and inactive are the calls of the source.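 How the source made its calls: active means inhibition of at least 40% at 10 µM; inconclusive means no clear call, values can overlap the other calls; inactive means the rest.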

Sequences of proteins named here, by UniProt entry; tags and fusion partners are left off. A change or cut given only in a name is not applied to a line headed by its entry.
UniProt O00391: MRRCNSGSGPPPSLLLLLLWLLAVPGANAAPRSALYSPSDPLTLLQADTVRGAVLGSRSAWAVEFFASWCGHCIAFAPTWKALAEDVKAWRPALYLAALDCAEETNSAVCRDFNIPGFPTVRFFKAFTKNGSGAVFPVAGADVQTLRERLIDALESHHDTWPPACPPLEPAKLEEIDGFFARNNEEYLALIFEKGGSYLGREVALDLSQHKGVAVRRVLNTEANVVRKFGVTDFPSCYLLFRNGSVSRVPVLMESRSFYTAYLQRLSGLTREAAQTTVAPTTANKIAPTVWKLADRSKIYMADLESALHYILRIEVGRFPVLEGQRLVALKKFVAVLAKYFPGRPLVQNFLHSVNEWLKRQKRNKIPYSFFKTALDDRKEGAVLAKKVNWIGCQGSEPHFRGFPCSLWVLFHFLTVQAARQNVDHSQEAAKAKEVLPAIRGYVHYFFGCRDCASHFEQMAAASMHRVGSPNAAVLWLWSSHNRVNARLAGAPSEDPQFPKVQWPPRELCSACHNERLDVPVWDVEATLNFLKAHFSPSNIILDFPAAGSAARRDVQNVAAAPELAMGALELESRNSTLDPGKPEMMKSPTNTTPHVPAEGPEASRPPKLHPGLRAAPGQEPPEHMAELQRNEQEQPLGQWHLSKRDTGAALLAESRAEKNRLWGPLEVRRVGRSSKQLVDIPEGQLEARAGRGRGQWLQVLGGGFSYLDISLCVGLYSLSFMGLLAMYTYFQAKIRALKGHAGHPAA

molecular target: Sulfhydryl oxidase 1 (Homo sapiens) (UniProt O00391); experiment: human QSOX1 sulfhydryl oxidase inhibition – biochemical, ROS-Glo luminescence, single concentration, confirmation (AID 1347421); conditions: recombinant hQSOX1, RNase A substrate, ROS-Glo H2O2 luminescence; at 10 µM;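 further: 0% = DMSO wells with enzyme and 100% = wells lacking QSOX1 enzyme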

Compound | activity
COc1c(C)cc(C(=O)C2CCCN(S(=O)(=O)N(C)C)C2)cc1C (stereo not drawn) | 3.2%
COCCC(=O)N1CCC(Oc2ccc(C(=O)NC3CCOC3)cc2)CC1 (stereo not drawn) | 9%
COc1cc(CNC2CCCCCC2)ccc1OCC(O)CN1CCOCC1 (stereo not drawn) | inactive: -2.1%
COc1cc(CN2CCCN(C(C)=O)CC2)ccc1OCC(O)CN(C)C1CCCCC1 (stereo not drawn) | 1.5%
Cc1cc(OCc2ccc(C(=O)N3CCCC3)cc2)ccc1Cl | active: 50.6%
CCN(CC)C(=O)NCc1ccc2c(c1)OCO2 | inactive: -18.4%
O=C(NCc1ccco1)c1ccccc1OC1CCN(C(=O)c2cccnc2)CC1 | inactive: -0.5%
Cc1ncc(CN2CCC3(CCCN(Cc4cccc(F)c4F)C3=O)C2)n1C (stereo not drawn) | 1.3%
COc1cc(CNCc2ccc(C)s2)ccc1OCC(O)CN(C)C(C)C (stereo not drawn) | 1.3%
O=C(CN1C(=O)CCNC1=O)N1CCC(OCc2ccccc2)CC1 | 2.9%
Cc1cc(C)c(Cn2cncn2)cc1CN1CCc2[nH]nc(-c3ccco3)c2C1 | inactive: -5.3%
CCNC(=O)c1ccc(NS(=O)(=O)c2cccs2)cc1 | 14.1%
CC(C)CCCC1CN(C(=O)CCC(N)=O)CCO1 (stereo not drawn) | 6.8%
CCN(CC)C(=O)N(CC)Cc1ccccc1 | inactive: -0.2%
Fc1ccccc1-c1noc2c1CN(Cc1cccc3c1OCO3)CC2 | 4.8%
O=C(c1ccsc1)N1CCCC(N2CCN(c3ccccc3F)CC2)C1 (stereo not drawn) | 2.1%
COc1cc(CNC2CC(=O)N(Cc3ccc(F)cc3)C2)ccc1F (stereo not drawn) | 4.7%
COc1cc(-c2cnn(CC(=O)Nc3ccnn3-c3ccccc3)c2)ncn1 | 1%
Cc1nccn1CC1CCCN(C(=O)Nc2nnc(Cc3ccccc3)s2)C1 (stereo not drawn) | inactive: -1.8%
OC(COc1ccccc1CNCCc1cnccn1)CN1CCSCC1 (stereo not drawn) | 7.9%
CN(C)CCC1CN(C(=O)C#Cc2ccccc2)CCO1 (stereo not drawn) | inactive: -0.3%
Cc1ccccc1CNCC1(O)CCCN(CC(C)(C)C)C1=O (stereo not drawn) | 7.2%

Compound | activity
COc1ccccc1CCCNC(=O)C1CCC(=O)N(CCCN2CCCC2=O)C1 (stereo not drawn) | 1.1%
COc1cccc(CC2CN(CCCSC)CCO2)c1 (stereo not drawn) | 1.7%
CC(=O)NC1CC(C)(C)Cc2c1cnn2-c1cccc(F)c1 (stereo not drawn) | 5.6%
COc1ccc(NC(=O)NCCN2CCN(c3cc(OC)ccc3OC)CC2)cc1 | inactive: -1.7%
CC(C)c1ccc(CN2CCCC3(CCN(C(=O)Cn4cccn4)C3)C2=O)cc1 (stereo not drawn) | 0.8%
COc1cc(CN(C)Cc2c(C)n[nH]c2C)ccc1OCC(O)CN(C)C(C)C (stereo not drawn) | 0.8%
CN1CCCCCC1C(=O)N1CCC(CCC(=O)Nc2ccccc2)CC1 (stereo not drawn) | 3.9%
CCc1nc(C)c(C(=O)NC2CCCN(CCCc3ccccc3)C2)o1 (stereo not drawn) | 4.8%
CSc1ccc(CN2CCC(CCC(=O)NCCN(C)C)CC2)cc1 | 1.7%
Cc1nc(C)c(C(=O)NC2CC(=O)N(C3CCCCCC3)C2)s1 (stereo not drawn) | 1.2%
CN(Cc1ccncn1)C(=O)CC1C(=O)NCCN1CC(c1ccccc1)c1ccccc1 (stereo not drawn) | 2%
CC(=O)NCC(=O)N1CCCC(CCc2ccccc2C(F)(F)F)C1 (stereo not drawn) | 8.9%
CN(C)CC(=O)NC1CC(=O)N(CCc2ccccc2)C1 (stereo not drawn) | 18.6%
FC(F)(F)c1cc(-c2ccco2)nc(N2CCCCC2)n1 | inactive: -20.8%
C=CCN(CC=C)C(=O)C1CCN(C2CCN(Cc3cccc(C)n3)CC2)CC1 | 1.9%
Cc1cc(CN2CCCC2c2ccc(C(=O)NCCc3ccccn3)s2)n[nH]1 (stereo not drawn) | 0.3%
COc1ccc(CNCCSC)cc1OCC(O)CN(C)C(C)C (stereo not drawn) | 1.6%
COc1ccc(OC)c(CN2CCOC(Cc3ccc(F)cc3)C2)c1 (stereo not drawn) | 0.9%
Cc1cccc(-n2cc(CN3CCN(C=O)CC3)c(-c3cccc(F)c3)n2)c1 | 5.2%
Cc1noc(C)c1C(=O)NC1CCCCC1C(C)(C)C (stereo not drawn) | inactive: -0.5%
Cc1cc(C)c(C)c(S(=O)(=O)n2nc(C)c(Cl)c2C)c1C | inactive: -17.4%
O=c1c2ccccc2nc(NCCO)n1Cc1ccccc1 | inactive: -20.3%

Compound | activity
Nc1ncnc(Nc2cc(Cl)cc(Cl)c2)n1 | inactive: -13.2%
COCC1CCN(C(=O)c2ccc(OC3CCN(C4CCCC4)CC3)c(OC)c2)C1 (stereo not drawn) | inactive: -1.3%
Cc1cc(C)n(CC(=O)NC2CCCN(C3CCCCCC3)C2)n1 (stereo not drawn) | inactive: -3.4%
CC(NC(=O)CSc1nc(O)cc(=O)[nH]1)c1ccccc1 (stereo not drawn) | inactive: -17.8%
COC(=O)[C@@H](C)NC(=O)c1coc(COc2ccc3sc(C)nc3c2)n1 | 2.2%
CN(Cc1cccs1)C(=O)c1ccc(OC2CCN(S(C)(=O)=O)CC2)c(Cl)c1 | 12.2%
O=C1N(CC2CCCCC2)CCCC1(O)CN1CCCOCC1 (stereo not drawn) | 4.1%
Cc1ccn2c(CNCCN(C)C)c(C(=O)N3CCCCCC3)nc2c1 | inactive: -0.2%
O=C1CCCCN1CC(=O)N1CCOC(Cc2cccc(C(F)(F)F)c2)C1 (stereo not drawn) | 0.8%
CNc1cc(C(=O)N2CCOC(Cc3ccccc3Cl)C2)ccn1 (stereo not drawn) | 2.7%
O=c1cc(O)c2ccccc2n1Cc1ccccc1Cl | inactive: -3.9%
CCN(CC)S(=O)(=O)Cc1ccccc1Cl | inactive: -19.9%
Cc1cc(C)n(CCNC(=O)Nc2nnc(-c3ccco3)s2)n1 | 3.1%
COCCNC(=O)CCC1CCN(Cc2ccc(COC)o2)CC1 | inactive: -1.5%
Cc1cc(C)n2nc(N3C(=O)CCC3=O)nc2n1 | inactive: -13%
COc1cccc(CC2CN(C(=O)c3oc(C)cc3C)CCO2)c1 (stereo not drawn) | 5.5%
CC(C)CCCC1CN(C(=O)c2ccc(N3CCN(C)CC3)cc2)CCO1 (stereo not drawn) | 6.6%
CCn1cc(CN2CCCC(CCC(=O)N3CCN(Cc4ccccc4)CC3)C2)cn1 (stereo not drawn) | 8.2%
Cc1ncsc1CCCNCc1cccc(OCC(O)CN2CCOCC2)c1 (stereo not drawn) | 8.2%
N#CCCCN1C(=O)C(O)(CC(=O)c2cccs2)c2ccccc21 (stereo not drawn) | 0.3%
O=C(c1ccc(OC2CCN(Cc3ccccn3)CC2)cc1)N1CCCCCCC1 | 3.4%
O=C(NC(=O)N1CCCCCC1)c1ccc(Cl)cc1 | inactive: -10.3%

Compound | activity
COc1cc(CNCCOc2cccnc2)ccc1OCC(O)CN(C)C(C)C (stereo not drawn) | inactive: -3.2%
COc1ccc2c(C(=O)NC(C)C)cc(-c3cnn(C)c3)nc2c1 | 4%
CC(=O)c1ccc(-c2nnc(CCC(=O)NC(C)Cc3ncccc3C)o2)s1 (stereo not drawn) | 6.1%
O=C(CCc1ccncc1)N1CCOC(Cc2cccc(C(F)(F)F)c2)C1 (stereo not drawn) | 10.1%
COC(=O)[C@@H]1CCCN1Cc1nc(-c2cccc(C(F)(F)F)c2)oc1C | inactive: -0.6%
CN(CCc1ccccn1)C(=O)CCC1CCCN(C(=O)Cc2cccnc2)C1 (stereo not drawn) | 4.4%
O=C(O)c1ccc(CNCc2ccsc2)cc1 | inactive: -9%
O=C(CCCn1nnnc1CN1CCOCC1)NCCC1=CCCCC1 | 8.8%
CCOC(=O)N1CCC(N2CCOC(CC3CCCCC3)C2)CC1 (stereo not drawn) | 6.1%
CC(C)c1nc(CNCc2c(C(=O)N3C[C@@H](C)O[C@@H](C)C3)nc3sccn23)cs1 | 4.9%
O=C(c1cc[n+]([O-])cc1)N1CCOC(Cc2ccccc2Cl)C1 (stereo not drawn) | 3%
Cc1cc(=O)n2[nH]c(NC(=O)Cc3ccc(Cl)cc3)nc2n1 | inactive: -15.3%
COc1cccc(-n2cc(CNC(=O)C3CCC(=O)N(C4CC4)C3)cn2)c1 (stereo not drawn) | 1%
Clc1ccc(-c2noc(CN3CCC(N4CCCC4)CC3)n2)cc1 | 6.2%
COc1cc(-c2nc(CN3CCN(C(=O)c4ccccc4OC)CC3)c(C)o2)ccc1F | 5.8%
CC(C)n1c(CN2CCOCC2)nc2ccccc21 | 0.4%
COCC(C)NC(=O)C1CCN(S(=O)(=O)c2ccc(F)cc2)CC1 (stereo not drawn) | 9.6%
COc1cc(CNCCN2CCCCC2=O)ccc1OCC(O)CN1CCCC1 (stereo not drawn) | 3.1%
Cc1cc(C)nc(NCCC(=O)O)n1 | inactive: -9.6%
CCN(Cc1nccn1C)C(=O)c1cc(-c2cn[nH]c2)nc2cc(F)ccc12 | 3%
Cc1cc(C)n(CCCNC(=O)C2CCC(=O)N(CCCN3CCCC3=O)C2)n1 (stereo not drawn) | 2.7%
COc1ccc(N2CCN(Cc3nc(N)nc(Nc4ccc(F)cc4)n3)CC2)cc1 | 1.9%

Random excerpt: 4 entries already listed, in no set order.
Compound | activity
COCC1CCN(C(=O)c2ccc(OC3CCN(C4CCCC4)CC3)c(OC)c2)C1 (stereo not drawn) | inactive: -1.3%
Cc1cccc(-n2cc(CN3CCN(C=O)CC3)c(-c3cccc(F)c3)n2)c1 | 5.2%
CC(=O)NCC(=O)N1CCCC(CCc2ccccc2C(F)(F)F)C1 (stereo not drawn) | 8.9%
COc1ccc2c(C(=O)NC(C)C)cc(-c3cnn(C)c3)nc2c1 | 4%

Later entries.

Compound | activity
CC(C)(C)CN1CCCC(O)(CNCc2ccncc2)C1=O (stereo not drawn) | inactive: -0.9%
COc1cccc(CNCC2CCOCC2)c1OCC(O)CN1CCOCC1 (stereo not drawn) | inactive: -2.1%
CSc1ccc(C(=O)C2CCCN(C(=O)c3cc(C)oc3C)C2)cc1 (stereo not drawn) | 1.7%
CCCn1cc(CN2CCC(CCC(=O)NCC3CCCO3)CC2)c(C)n1 (stereo not drawn) | 3.1%
Cc1cc(C)c(C(=O)N2CCCC(CCC(=O)N(C)CCc3ccccn3)C2)c(=O)[nH]1 (stereo not drawn) | 7.3%
CC(C)Cc1cc(CN2CCN(Cc3ccc(F)c(F)c3)C(CCO)C2)[nH]n1 (stereo not drawn) | 0.4%
O=C(c1cc2ccccc2oc1=O)N1CCOC(CC2CCCCC2)C1 (stereo not drawn) | 0.4%
Cc1cnccc1CN(C)C(=O)c1cc(-c2cn[nH]c2)nc2cc(F)ccc12 | 4.2%
COC(=O)CCC(=O)N1CCC2(CCCN(Cc3ccc(C(C)C)cc3)C2)C1 (stereo not drawn) | 5.5%
O=C(CSc1nnc(-c2ccco2)o1)Nc1ccc(Br)cc1 | 2.3%
COc1ccccc1CN1CCN(Cc2ccc(F)c(F)c2)C(CCO)C1 (stereo not drawn) | 0.3%
COc1ccc(CNCCCN2CCOCC2)cc1OCC(O)CN1CCCC1 (stereo not drawn) | 4.6%
COc1ccc(F)c(CN2CCCC3(CCN(S(=O)(=O)N(C)C)C3)C2=O)c1 (stereo not drawn) | 0.3%
COc1ccc(OC)c(Nc2cc(C)nc3ncnn23)c1 | 0.6%
Cc1[nH]n2c(=O)c3c(nc2c1-c1ccc(F)cc1)CCCC3 | inactive: -2%
O=C1CN(Cc2cn(Cc3ccccc3)nc2-c2cc3ccccc3o2)CCN1 | 6.5%
CC(C)n1cc(-c2cc(C(=O)N3CCCN(C)CC3)c3cc(F)ccc3n2)cn1 | inactive: -1.6%
CCOC(=O)c1oc2ccc(Cl)cc2c1CN1CCN(c2ncccn2)CC1 | 2.1%
CCNC(=O)c1cccc(OC(C)C)c1 | 6.5%
O=C(CC1CNCCO1)N1CCc2[nH]nc(-c3ccc(Cl)c(Cl)c3)c2C1 (stereo not drawn) | 9.3%
